Measured values reported in PubChem BioAssay AID602296 (Broad Institute, 2012).
Screen size: about 2,000 compounds; about 190 (9.5%) were called active. Not shown: some 14% with an inconclusive outcome.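 The calls were made as follows: active = fitted activation curve crossing 40% at a concentration no higher than the sample's top valid tested dose; inconclusive = flat fitted curve at 30% to 70% activation, or poor curve fit; inactive = signal decrease, flat curve within 30%, or the rest.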 Most of the strongest results are missing from this list.

Test: sustained heat shock response element induction – cell-based, mouse, luciferase, cherry-pick, dose, confirmation (AID 602296);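 also: test compounds applied by themselves with no MG132 co-treatment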
Settings: NIH3T3-HGL HSF-1 response element luciferase, 48 h; at 26 µM (top of the series) unless noted

activation, inactive:
c1ccc(-c2nc(NCc3cccnc3)c3oc4ccccc4c3n2)cc1 -4.47%, O=S(=O)(c1ccc(Oc2ccccc2)cc1)N1CCOCC1 -20.1%, CC(C)[C@H](NC(N)=O)C(=O)NNC(=O)COc1cccc(C(F)(F)F)c1 6.56%, O=S(=O)(NC1c2cccc3cccc(c23)C1N1CCNCC1)c1ccc(Cl)cc1 (centres undefined) -6.13%, COCCN(CCOC)c1nc(-c2ccc(C)cc2)nc2ccccc12 -14.3%, Cc1ccc(S(=O)(=O)NCCOc2nc(N3CCOCC3)nc(N3CCOCC3)n2)cc1 -2.81%, CC(Oc1ccc(Cl)cc1)C(=O)/C=C/N(C)C (centres undefined) -17.7%, Clc1ccc(CO/N=C/c2c(-c3ccccc3)nc3n2CCS3)c(Cl)c1 -67.9%, CCOC(=O)CN1CCC(c2cc(-c3ccc(Cl)cc3)n[nH]2)CC1 5.04%, Cc1c(N=C2SCC(=O)N2/N=C\c2ccc(Br)cc2)c(=O)n(-c2ccccc2)n1C -7.73%, CCCn1c(C)nc2c(c1=O)c1nc3ccccc3nc1n2CCC1=CCCCC1 -20.8%, Cn1c(SCc2cccc(C(F)(F)F)c2)nnc1-c1ccco1 6.26%, Cc1cc(C)n(Cc2ccc(Cl)cc2Cl)c(=O)c1S(=O)(=O)c1ccccc1 -5.83%, ClC(Cl)(Cl)c1nc2ccccc2n2nncc12 -92.4%, CCc1ccccc1NC1=NCC(=O)N1C1CCCCC1 -15.7%, CCOc1ccccc1CN1CCN(Cc2cn(C)nc2-c2ccccc2)CC1CCO (centres undefined) 11.8%, COC(=O)c1cc2c(ccn2-c2ccc(F)cc2)n1Cc1ccc(C#N)cc1 -15%, C=CCNC(=O)CSc1nnc(C(CC)N(C)C)n1C1CCCCC1 (centres undefined) 6.83%, Clc1ccc(N=c2ssnc2Cl)nc1 20%, CCCCOCCCN1CC(=O)N2[C@@H](Cc3c([nH]c4ccccc34)C2(C)C)C1=O -3.37%, O=C1CC(c2ccc(Cl)cc2)n2nc(NS(=O)(=O)c3ccc(F)cc3)nc2N1 (centres undefined) 2.36%, Cn1c(CNc2cccc(Cl)c2)nnc1SCC#N -6.44%, Cc1ccc(C)c(NC2CCCCC2NS(=O)(=O)c2ccccc2)c1 (centres undefined) -16.6%, Cc1cc(N(C)C)c(C#N)c(NCc2ccccc2)n1 -12.7%, c1ccc2c(C3=NNC(=NC4CC4)SC3)c[nH]c2c1 -91.2%, CCC(CC)COC(=O)C1=C(C)NC(=O)NC1c1cc(OC)ccc1OC (centres undefined) -49.7%, O=C(C1=C[C@@H](C2CC2)C[C@@H](OCc2ccc(CO)cc2)O1)N1CCN(Cc2ccccc2)CC1 -34.9%, C=CCn1c(SCC(=O)NC2CCCC2)nc2scc(-c3ccco3)c2c1=O -12.3%, O=c1[nH]c(CSc2ccccn2)nc2c1oc1ccccc12 -99.2%, CC(NC(=O)CCCN1C(=O)c2ccccc2C1=O)c1ccc2c(c1)CCCC2 (centres undefined) -3.36%, Cc1nn(-c2ccccc2)c2sc(C(=O)N(Cc3ccco3)C(C)C(=O)NC(C)(C)C)cc12 (centres undefined) -69.8%, CC(=O)Cc1cc(O)c2ccccc2c1OC(=O)c1ccccc1 9.89%, CCN1CCSc2ccc(C(=O)NCc3cccc(Br)c3)cc21 -27.4%, Cc1nc(CN2CCN(Cc3nc(C(c4ccccc4)c4ccccc4)no3)CC2)cs1 -11.6%, CCCCN(CC)c1nc(N)c2c(N)nc(OCC)cc2c1C#N -8.49%, CCOC(=O)c1cnc(-c2ccccc2)nc1Oc1ccc(C)cc1 20.7%, COc1ccc(NC(=O)CN(C)S(=O)(=O)c2ccc(Br)s2)cc1OC -3.57%, COC(=O)C1=C(C)NC2=C(C(=O)CC(C)(C)C2)C1c1cn(Cc2ccc(Br)cc2)nc1-c1ccccc1 (centres undefined) -41.5%, Cc1ccc(NC(=O)c2sc3ncn(CC(=O)N4CCOCC4)c(=O)c3c2C)c(Br)c1 -7.54%, COc1ccc(NC(=O)c2[nH]c(C)c(C(C)=O)c2C)cc1S(=O)(=O)Nc1ccc(Br)cc1 -28.5%, Cc1cc(C)cc(NC(=O)CN2C(=O)NC(C)(c3ccccc3)C2=O)c1 (centres undefined) -8.91%, Cc1ccc(-n2nc3c(c2NC(=O)c2ccc4c(c2)OCO4)CSC3)c(C)c1 7.18%, CCC(c1nnnn1Cc1ccco1)N(Cc1cc2cc(OC)ccc2[nH]c1=O)C1CCCCC1 (centres undefined) -28.1%, O=[N+]([O-])c1c(Nc2ccccc2O)cc(Cl)c2nonc12 -109%, Fc1ccc(-c2nc(-c3cnccn3)no2)c(Cl)c1 -77.6%, COC(=O)c1c(C)oc2ccc(N(C(=O)Oc3ccccc3)S(=O)(=O)c3ccccc3)cc12 -33.5% [at 12 µM], C/C(=N\Nc1nc(C)cc(-c2ccccc2)n1)c1ccc(C)o1 3.52%, COc1ccc(Cl)cc1N1C(=O)/C(=C\c2sccc2C)N=C1SCC(=O)NC1CC1 -11.2%, CCn1c(SC)nnc1C1CCCN(CC(=O)Nc2ccccc2N2CCOCC2)C1 (centres undefined) -7.41%, O=C1CC(N2CCC(c3nc4ccccc4[nH]3)CC2)C(=O)N1c1ccccc1F (centres undefined) -18.8%, COc1ccc(S(=O)(=O)N[C@@H](Cc2ccccc2)C(=O)N2CC[C@@]3(O)CCCC[C@H]3C2)cc1 -0.963%, Cc1ccc(C(=O)NCC(C)NC(=O)c2ccc(C)c([N+](=O)[O-])c2)cc1[N+](=O)[O-] (centres undefined) 3.13%, CNC(=S)NCCC(c1ccccc1)c1ccccc1 -6.46%, CC(=O)OC(C)C(=O)NS(=O)(=O)c1ccc(C)cc1 (centres undefined) -18.8%, CCOC(=O)c1c(NC(=O)c2nn(CC)cc2Br)c(C#N)nn1-c1ccccc1 -52.7%, CCOc1ccc(C(=O)NC2CC3CCCC(C2)N3CC(C)C)cc1 (centres undefined) -2.9%, Cc1cccc(OCC(=O)Nc2ccc3c(c2)nc(CCN2CCCCC2)n3C)c1 -7.85%, CC(=O)Oc1c(Cl)cc(N(C(C)=O)S(=O)(=O)c2ccccc2)c2ccccc12 -23.1%, CC1=CN2C(=N)/C(=C/c3ccc([N+](=O)[O-])o3)C(=O)N=C2S1 -102%
